Measurements as given in patent US4839344A, “Polypeptide compounds having growth hormone releasing activity” (Eastman Kodak Company, priority 1987, dated 1989).
Not every detail of the peptide structures is certain; ends, links or a residue may be inferred. Square brackets hold non-standard residues; d marks the D form. Peptide text beside a SMILES is read from it.

Test system: growth hormone (GH) release
Experiment: In Vivo GH Release in Rats (serum GH by RIA)
Set-up: species or system immature female Sprague-Dawley rats
Conditions: rat serum, i.v., sacrificed 10 minutes after final injection, mean ± SEM, six rats

Structure (SMILES)	GH Released by Compound in Column A (total dose 100 μg)	GH Released by Compound in Column A (total dose 30 μg)
C[C@H](NC(=O)CNC(=O)[C@H](Cc1ccccc1)NC(=O)[C@@H](C)NC(=O)[C@@H](N)Cc1ccc(O)cc1)C(=O)N[C@@H](Cc1c[nH]cn1)C(=O)N[C@H](Cc1c[nH]c2ccccc12)C(=O)N[C@@H](C)C(=O)N[C@@H](Cc1c[nH]c2ccccc12)C(=O)N[C@H](Cc1ccccc1)C(=O)N[C@@H](CCCCN)C(N)=O [Compound 9106, Tyr--DAla--Phe--Gly--Ala--His--DTrp--Ala--Trp--DPhe--Lys--NH2] (H-Y[dA]FGAH[dW]AW[dF]K-NH2)	116 ± 42 ng/mL	
C[C@H](NC(=O)[C@H](Cc1ccccc1)NC(=O)CNC(=O)[C@@H](C)NC(=O)[C@@H](N)Cc1ccc(O)cc1)C(=O)N[C@@H](Cc1c[nH]cn1)C(=O)N[C@H](Cc1c[nH]c2ccccc12)C(=O)N[C@@H](C)C(=O)N[C@@H](Cc1c[nH]c2ccccc12)C(=O)N[C@H](Cc1ccccc1)C(=O)N[C@@H](CCCCN)C(N)=O [Compound 9216, Tyr--DAla--Gly--Phe--Ala--His--DTrp--Ala--Trp--DPhe--Lys--NH2] (H-Y[dA]GFAH[dW]AW[dF]K-NH2)	196 ± 43 ng/mL	46 ± 12 ng/mL
